Residue numbers refer to the chain shown, from its start. No constants are given. Whether binding was seen depends on the method and setting. For some of these results: Binding seen in cells or lysates may run through a third protein. Some results given as binding are weak or reduced against the parent protein; the word gives no strength. For some of these results: Sequences can lack the tags named with a protein.

By UniProt entry, the sequences of proteins in these tests, tags left out.
UniProt P23763: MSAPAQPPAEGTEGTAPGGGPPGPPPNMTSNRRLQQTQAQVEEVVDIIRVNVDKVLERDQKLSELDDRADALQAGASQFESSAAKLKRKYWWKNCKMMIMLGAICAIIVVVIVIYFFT
UniProt O95292: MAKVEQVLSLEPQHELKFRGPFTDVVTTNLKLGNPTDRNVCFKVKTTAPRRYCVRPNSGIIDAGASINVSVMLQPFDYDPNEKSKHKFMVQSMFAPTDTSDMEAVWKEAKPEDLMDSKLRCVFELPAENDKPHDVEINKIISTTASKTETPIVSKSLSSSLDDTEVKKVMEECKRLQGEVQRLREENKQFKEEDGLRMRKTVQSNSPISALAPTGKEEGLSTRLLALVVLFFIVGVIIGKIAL
UniProt P63027: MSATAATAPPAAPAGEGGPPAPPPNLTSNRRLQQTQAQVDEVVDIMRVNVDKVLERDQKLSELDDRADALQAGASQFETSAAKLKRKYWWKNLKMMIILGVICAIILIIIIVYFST
UniProt Q9JKA9: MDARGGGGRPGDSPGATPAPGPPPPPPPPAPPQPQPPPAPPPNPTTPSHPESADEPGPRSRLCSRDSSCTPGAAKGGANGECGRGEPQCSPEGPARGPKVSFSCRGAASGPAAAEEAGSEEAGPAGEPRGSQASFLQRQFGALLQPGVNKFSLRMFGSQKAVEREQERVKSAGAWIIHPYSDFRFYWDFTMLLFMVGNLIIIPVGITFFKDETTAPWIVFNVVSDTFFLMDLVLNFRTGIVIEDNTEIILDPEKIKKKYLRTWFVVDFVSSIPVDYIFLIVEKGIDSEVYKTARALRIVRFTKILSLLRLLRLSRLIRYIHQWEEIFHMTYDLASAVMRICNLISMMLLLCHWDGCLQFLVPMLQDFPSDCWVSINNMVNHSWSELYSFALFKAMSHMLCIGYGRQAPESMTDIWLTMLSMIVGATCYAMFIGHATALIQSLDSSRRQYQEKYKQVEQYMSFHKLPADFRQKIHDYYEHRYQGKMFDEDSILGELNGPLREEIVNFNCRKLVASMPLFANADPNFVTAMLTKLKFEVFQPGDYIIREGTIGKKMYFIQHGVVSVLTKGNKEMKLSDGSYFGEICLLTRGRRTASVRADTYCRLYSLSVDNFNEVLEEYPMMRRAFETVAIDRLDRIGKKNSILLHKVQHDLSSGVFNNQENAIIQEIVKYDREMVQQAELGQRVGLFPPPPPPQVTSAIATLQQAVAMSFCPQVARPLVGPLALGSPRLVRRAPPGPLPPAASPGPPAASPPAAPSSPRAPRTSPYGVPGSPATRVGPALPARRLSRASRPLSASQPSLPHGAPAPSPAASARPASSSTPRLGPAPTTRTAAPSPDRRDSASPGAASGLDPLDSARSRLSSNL

Experiment [1] addresses T1, full-length mHCN2 (bait pBT3-mHCN2) (mouse) (UniProt O88703).
T1 sequence: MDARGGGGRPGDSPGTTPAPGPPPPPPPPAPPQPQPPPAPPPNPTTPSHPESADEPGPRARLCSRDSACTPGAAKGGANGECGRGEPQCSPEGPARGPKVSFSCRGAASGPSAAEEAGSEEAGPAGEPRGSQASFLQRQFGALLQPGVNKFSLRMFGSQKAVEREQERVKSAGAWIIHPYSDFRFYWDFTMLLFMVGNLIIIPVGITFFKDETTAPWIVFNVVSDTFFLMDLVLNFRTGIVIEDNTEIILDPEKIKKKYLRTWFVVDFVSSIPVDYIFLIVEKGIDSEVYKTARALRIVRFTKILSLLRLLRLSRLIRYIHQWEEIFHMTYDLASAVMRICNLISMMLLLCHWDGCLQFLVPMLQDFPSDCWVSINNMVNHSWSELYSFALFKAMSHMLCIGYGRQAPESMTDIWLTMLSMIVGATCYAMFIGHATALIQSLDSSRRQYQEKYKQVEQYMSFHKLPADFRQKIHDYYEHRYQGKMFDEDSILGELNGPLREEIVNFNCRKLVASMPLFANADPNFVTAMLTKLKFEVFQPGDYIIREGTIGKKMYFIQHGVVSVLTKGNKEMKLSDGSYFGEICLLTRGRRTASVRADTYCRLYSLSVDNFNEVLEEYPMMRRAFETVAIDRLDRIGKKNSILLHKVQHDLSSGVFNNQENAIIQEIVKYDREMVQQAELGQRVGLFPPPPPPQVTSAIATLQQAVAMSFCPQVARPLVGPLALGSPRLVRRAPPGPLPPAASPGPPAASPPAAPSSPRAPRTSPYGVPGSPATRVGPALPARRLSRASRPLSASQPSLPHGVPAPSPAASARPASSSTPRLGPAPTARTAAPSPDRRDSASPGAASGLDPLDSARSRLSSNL
The experiment can be described thus: two-hybrid; split-ubiquitin Y2H direct interaction assay; prey hVAPB in pPR3-N, baits in pBT3 (mHCN2, its truncations, hHCN4); colony growth on minimal medium (-LWHA).

In experiment [2] the target is T2, hHCN4 (bait pBT3-hHCN4) (human) (UniProt Q9Y3Q4).
T2 sequence: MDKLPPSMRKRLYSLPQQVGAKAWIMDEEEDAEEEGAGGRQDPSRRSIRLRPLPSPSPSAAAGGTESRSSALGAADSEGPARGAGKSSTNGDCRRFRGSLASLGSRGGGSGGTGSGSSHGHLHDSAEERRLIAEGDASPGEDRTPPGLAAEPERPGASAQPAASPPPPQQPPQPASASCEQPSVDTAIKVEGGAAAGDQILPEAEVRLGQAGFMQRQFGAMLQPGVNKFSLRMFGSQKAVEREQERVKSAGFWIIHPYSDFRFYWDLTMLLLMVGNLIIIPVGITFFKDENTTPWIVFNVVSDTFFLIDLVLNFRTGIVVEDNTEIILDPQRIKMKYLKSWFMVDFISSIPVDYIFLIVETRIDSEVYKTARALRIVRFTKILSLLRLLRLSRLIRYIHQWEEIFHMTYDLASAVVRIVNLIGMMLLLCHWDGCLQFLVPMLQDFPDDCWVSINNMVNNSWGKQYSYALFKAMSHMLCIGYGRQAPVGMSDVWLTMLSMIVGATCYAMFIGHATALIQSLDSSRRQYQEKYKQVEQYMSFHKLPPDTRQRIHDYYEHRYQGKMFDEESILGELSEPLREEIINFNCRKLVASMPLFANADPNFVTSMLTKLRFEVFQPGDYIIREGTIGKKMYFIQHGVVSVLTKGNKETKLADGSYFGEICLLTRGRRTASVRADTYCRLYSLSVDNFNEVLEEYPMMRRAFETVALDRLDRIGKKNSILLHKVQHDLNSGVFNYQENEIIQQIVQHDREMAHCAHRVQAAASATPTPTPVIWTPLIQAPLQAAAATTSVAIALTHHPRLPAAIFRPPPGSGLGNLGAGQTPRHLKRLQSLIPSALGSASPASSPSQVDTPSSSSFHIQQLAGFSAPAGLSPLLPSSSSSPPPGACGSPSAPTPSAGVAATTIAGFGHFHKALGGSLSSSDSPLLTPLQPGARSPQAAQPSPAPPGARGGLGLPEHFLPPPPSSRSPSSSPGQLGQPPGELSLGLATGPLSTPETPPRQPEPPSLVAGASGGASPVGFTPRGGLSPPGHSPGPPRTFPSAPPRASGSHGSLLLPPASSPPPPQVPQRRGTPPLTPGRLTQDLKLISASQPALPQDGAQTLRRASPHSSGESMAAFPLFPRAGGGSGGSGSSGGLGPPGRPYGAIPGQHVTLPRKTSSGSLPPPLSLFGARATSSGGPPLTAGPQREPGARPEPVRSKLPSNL
Described as above.

In experiment [3] the target is T3, GST-VAPA (^GSTVAPA) (human) (UniProt Q9P0L0).
T3 sequence: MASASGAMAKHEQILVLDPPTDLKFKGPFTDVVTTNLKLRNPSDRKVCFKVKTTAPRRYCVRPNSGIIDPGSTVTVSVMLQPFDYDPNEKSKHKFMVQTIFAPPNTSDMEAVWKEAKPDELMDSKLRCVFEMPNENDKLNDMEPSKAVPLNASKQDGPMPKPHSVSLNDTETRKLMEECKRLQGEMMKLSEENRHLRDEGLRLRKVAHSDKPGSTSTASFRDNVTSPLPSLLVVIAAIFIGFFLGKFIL
Kind of experiment: pull-down; GST fusion proteins from BL21 lysate on MagneGST beads; lysate (RIPA buffer) of HeLa cells transfected with HCN2^EGFP; immunoblot with anti-GFP; only the target purified.

For experiment [4], the target named is GST-VAMP1 (^GSTVAMP1) (human) (UniProt P23763). Kind of experiment: pull-down; GST fusion proteins from BL21 lysate on MagneGST beads; in vitro translated untagged HCN2 (TnT T7); immunoblot with anti-HCN2; only the target purified.
Experiment [5] concerns the target GST-VAPB (^GSTVAPB) (human) (UniProt O95292). The description is as above.
Experiment [6] has as its target GST-VAMP2 (^GSTVAMP2) (human) (UniProt P63027). Described as above.
For experiment [7], the target named is T3, GST-VAPA (^GSTVAPA) (human). Described as above.
Experiment [8] has as its target GST-VAPB (^GSTVAPB) (human) (UniProt O95292). The experiment can be described thus: pull-down; GST fusion proteins on MagneGST beads; rat brain protein lysates; HCN2 detected by immunoblot; only the target purified.
The target in experiment [9] is T3, GST-VAPA (^GSTVAPA) (human). The experiment is described as above.
Experiment [10] addresses GST-VAMP1 (^GSTVAMP1) (human) (UniProt P23763). Kind of experiment: pull-down; GST fusion proteins from BL21 lysate on MagneGST beads; lysate (RIPA buffer) of HeLa cells transfected with HCN2^EGFP; immunoblot with anti-GFP; only the target purified.
Experiment [11] concerns the target GST-VAPB (^GSTVAPB) (human) (UniProt O95292). The experiment is described as above.
The target of experiment [12] is GST-VAMP2 (^GSTVAMP2) (human) (UniProt P63027). Described as above.

Consider “full-length hVAPB (prey in pPR3-N) (from UniProt O95292 1-243)”, for which the binding result in experiment [1] is on record as “binds”; in experiment [2], “no binding”.
Turning to “endogenously expressed VAPB (HeLa) (from UniProt O95292 1-243)”, the binding result in experiment [3] was “binds”.

B1: in vitro translated HCN2 (untagged) (protein, UniProt O88703 1-863)
chain: T1 sequence
As to B1, the binding result in [4], in experiment [5], in experiment [6] and in experiment [7] was “binds” throughout.

B2: HCN2 from rat brain protein lysates (protein, UniProt Q9JKA9 1-863)
chain: T1 sequence with T16A, A60S, A68S, S112A, V803A, A828T
Consider B2, for which the binding entry in experiment [8] and in experiment [9] was “binds” throughout.

B3: HCN2^EGFP (protein, UniProt O88703 1-863)
chain: T1 sequence
B3: the binding result in [10], in [11], in experiment [12] and in [3] was “binds” each time.

The record behind these values is paper PMC6629115.
